Our source for the binding signal values is paper PMC7819943, “Rice protein-binding microarrays: a tool to detect cis-acting elements near promoter regions in rice”.

Some of the results follow.

This test concerns the target T1, OsSMF1 (Oryza sativa, UniProt Q6ZLB0 1-436).
T1 sequence: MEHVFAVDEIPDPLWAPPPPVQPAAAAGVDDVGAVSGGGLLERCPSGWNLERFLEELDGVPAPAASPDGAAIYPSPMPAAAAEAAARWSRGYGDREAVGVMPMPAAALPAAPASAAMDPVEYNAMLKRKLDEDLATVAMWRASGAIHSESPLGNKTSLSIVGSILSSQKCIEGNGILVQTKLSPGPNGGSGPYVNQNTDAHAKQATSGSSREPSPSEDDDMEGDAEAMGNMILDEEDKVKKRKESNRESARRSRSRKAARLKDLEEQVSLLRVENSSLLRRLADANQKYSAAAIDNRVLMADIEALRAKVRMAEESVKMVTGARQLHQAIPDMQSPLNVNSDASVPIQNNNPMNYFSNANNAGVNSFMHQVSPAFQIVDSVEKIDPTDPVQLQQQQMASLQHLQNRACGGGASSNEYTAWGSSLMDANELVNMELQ
Description: protein-binding microarray (RPBM); PBS, 2% BSA, 51.3 ng/ul salmon testes DNA, 50 uM zinc acetate, 200 nM TF, 25 C, 1 h; high values mean tight binding. To be noted: protein: recombinant; tags: N-terminal polyhistidine and DsRed monomer fusion (pET32a); chain copies: 2; label: CyDye5-dUTP incorporated in the synthesized complementary strand; 3' TTTTT single-stranded linker to array surface; dsDNA, one strand shown. In short, it runs like this: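 In PBS with 2% BSA, salmon testes DNA and 50 µM zinc acetate, 200 nM protein was incubated on a custom Agilent array at 25 °C for 1 h and then washed off. The array had been made double-stranded by primer extension with Cy5-dUTP and blocked with 2% BSA. The proteins were transcription factors fused N-terminally to polyhistidine and DsRed, expressed in E. coli BL21-CodonPlus and purified on Ni–NTA. The binding signal is per-feature fluorescence intensity (arbitrary units) from an Axon 4000B scanner.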
With “ACACTTGCTTTCAACACGTTAGTTCTTCGTCAACGGAGCTCGGAGTCACCTAGTGCAG”, the binding signal was 3820 fluorescence intensity (a.u.).

Turning to “AAAACCAATTACACAGTTTGCGTGTAAATTGCGAGACGAACGGAGTCACCTAGTGCAG”, the binding signal was 3580 fluorescence intensity (a.u.).

Take “CTCCCTTCTCCACGCACGCACATCATCATTATTGGGAGGCCGGAGTCACCTAGTGCAG”: the binding signal was 5520 fluorescence intensity (a.u.).

Regarding “CCCTAGCCGCCAAACCTTGCACGAAGGGAGAAGGCACGCCCGGAGTCACCTAGTGCAG”, the binding signal was 24800 fluorescence intensity (a.u.).

Take “CCCACATCCGGGCCCACCTGACAGTGACCCAACACCCAATCGGAGTCACCTAGTGCAG”: the binding signal was 3690 fluorescence intensity (a.u.).

Take “GGGCGGCTATGGCGACGACGACGACGACCGCATCTCTCTCCGGAGTCACCTAGTGCAG”: the binding signal was 3290 fluorescence intensity (a.u.).

As for “GCCCCACCCATACCCAAGCTTCCCGCTAATGTAGGCTCGACGGAGTCACCTAGTGCAG”, the binding signal was 37800 fluorescence intensity (a.u.).

As for “TTCAGCCATCTTCTTCATCTGCGACAACTCCCCATCACTGCGGAGTCACCTAGTGCAG”, the binding signal was 3450 fluorescence intensity (a.u.).

On to “GCCAGCCGGCATGTCGTCGTTGTCATCCACTTGCCAGCAACGGAGTCACCTAGTGCAG”, for which the binding signal was 4640 fluorescence intensity (a.u.).

For “TACGCGGGAACTTCTGGCCCTGCATTGGTTCTAATTCATGCGGAGTCACCTAGTGCAG”, the binding signal is 7110 fluorescence intensity (a.u.).

Consider “TACTAGGATTGACCAAGCTTCGGTATCTCAAGCTCAATAACGGAGTCACCTAGTGCAG”, for which the binding signal was 34000 fluorescence intensity (a.u.).

Regarding “TGTAGTGCGCGCTGTACTGTTCCCACGTCGCGTCGAGGCACGGAGTCACCTAGTGCAG”, the binding signal was 3300 fluorescence intensity (a.u.).

Regarding “TTACGCAGAGAAACTAATCCACATCAACACACCATCACTCCGGAGTCACCTAGTGCAG”, the binding signal is 3970 fluorescence intensity (a.u.).

As to “CGGTGCCATTGGCTGGCCCATCATCGTACCAGCCAGTCCACGGAGTCACCTAGTGCAG”, the binding signal is 3170 fluorescence intensity (a.u.).

For the sequence “TCATTTAAAATATGCTGCCACGTATAAAATCGAACTAAAGCGGAGTCACCTAGTGCAG”, the binding signal was 8250 fluorescence intensity (a.u.).

In the case of “TTTAACAGACGTTAATCATGCATCCACCAATGGCTACGGACGGAGTCACCTAGTGCAG”, the binding signal is 3250 fluorescence intensity (a.u.).

Take “CGGGAGAGAGATCAGATGCGGCATGGCGTGGCCGTGGCGTCGGAGTCACCTAGTGCAG”: the binding signal was 3380 fluorescence intensity (a.u.).

“ATCCTTCCAGGCTTTCCAGCCCACCGCTCCACCGATCTCGCGGAGTCACCTAGTGCAG”: the binding signal is 3190 fluorescence intensity (a.u.).

With “AGAGCTTGTGTGGTGGTGGGGCATCAGTGTGTCAGTTGTGCGGAGTCACCTAGTGCAG”, the binding signal is 3970 fluorescence intensity (a.u.).

For “CATTTGCCATATCGGCTCAATCAAACTCTGACTTTGTTTCCGGAGTCACCTAGTGCAG”, the binding signal was 3180 fluorescence intensity (a.u.).

Consider “CTAGTAACCAATACAATCACAAGCTACCTGAACGGTTTCTCGGAGTCACCTAGTGCAG”, for which the binding signal was 4030 fluorescence intensity (a.u.).

In the case of “TGTTGGTTCGCCGTGGTGGCTGACAGGGATCCGGGTGAAGCGGAGTCACCTAGTGCAG”, the binding signal is 3670 fluorescence intensity (a.u.).

With “ATGGTTTGACGCAGCCCCGTCCTGTTGACTCACCTGACCGCGGAGTCACCTAGTGCAG”, the binding signal is 5590 fluorescence intensity (a.u.).

With “AACAACGATTATGTGTTTGATCACCCGCCCACATCATGCGCGGAGTCACCTAGTGCAG”, the binding signal was 4230 fluorescence intensity (a.u.).

Take “CGTCGGCGAAGAGAGGAGATAGAGGTGGAGGAAGTGGGTTCGGAGTCACCTAGTGCAG”: the binding signal is 4180 fluorescence intensity (a.u.).

Take “GAAGGCTGGCGTGGCACGTAGTTGCGTTTTGCCGTTTTGGCGGAGTCACCTAGTGCAG”: the binding signal is 11800 fluorescence intensity (a.u.).

In the case of “ATCAAATCAGTCACACGTCACATTTGCAGTATAGAGTAGCCGGAGTCACCTAGTGCAG”, the binding signal was 14500 fluorescence intensity (a.u.).

With “CCTTGAAAATGATACATTCTACTCATCAAACCCCAACAAACGGAGTCACCTAGTGCAG”, the binding signal is 3500 fluorescence intensity (a.u.).

In the case of “GCGTCGTCCTCGACTCCTCCGCCACCCGCCTGCTCCATCTCGGAGTCACCTAGTGCAG”, the binding signal is 36900 fluorescence intensity (a.u.).

On to “GATGTGACACATCCTAGTACAACGTCATATCTAACCTAAACGGAGTCACCTAGTGCAG”, for which the binding signal was 4950 fluorescence intensity (a.u.).

As for “AAAGGAGTTGCTAGCAGAGGTGAAATATCGTCATGTCGAACGGAGTCACCTAGTGCAG”, the binding signal is 3200 fluorescence intensity (a.u.).

“GTGGCACGGTTACAATTTTGTAAAATTTCAGTGTCATGGCCGGAGTCACCTAGTGCAG”: the binding signal is 3760 fluorescence intensity (a.u.).

In the case of “ACAACACCCTTTTGTCTGCCAGCTCACCTCTTCAAACGTTCGGAGTCACCTAGTGCAG”, the binding signal was 7320 fluorescence intensity (a.u.).

As for “GCACCGAAAGGCGAATCTAAGCGCGTCCAGCGTAAGCATCCGGAGTCACCTAGTGCAG”, the binding signal is 4920 fluorescence intensity (a.u.).

For the sequence “CCGACATCCGACGGATAGGATAGTTGGATGATGATGTGGACGGAGTCACCTAGTGCAG”, the binding signal was 8660 fluorescence intensity (a.u.).

As for “CTGCAGATTCATTGTTACTAGTCTTAGTCATACTTGTTACCGGAGTCACCTAGTGCAG”, the binding signal was 3920 fluorescence intensity (a.u.).

On to “CTTTTCGCCATTCAAGGAATTACCTCGTGGGCTATATGTACGGAGTCACCTAGTGCAG”, for which the binding signal is 3330 fluorescence intensity (a.u.).

Regarding “TTTGTAACTAAGCGGTGTCACTCCTCAAAGCTACACAAGCCGGAGTCACCTAGTGCAG”, the binding signal was 3550 fluorescence intensity (a.u.).

As to “TATTGGGCTTGAGGTTTTGTGGCCCGTAAAGGGAGGGGTGCGGAGTCACCTAGTGCAG”, the binding signal was 3290 fluorescence intensity (a.u.).

As to “AAATAAATAAAAGTCTTCTGCATTTTCCTGGTATATATTCCGGAGTCACCTAGTGCAG”, the binding signal is 8620 fluorescence intensity (a.u.).

As for “ACGACCACTTCCGCGACGAGATCACCGTAGCGTTACAGCACGGAGTCACCTAGTGCAG”, the binding signal is 3150 fluorescence intensity (a.u.).

Consider “AGCAGCTGCCTCAAGGTAATTCAGCACTCTGGTATTGGCACGGAGTCACCTAGTGCAG”, for which the binding signal was 22700 fluorescence intensity (a.u.).

Consider “GCCGCCGTCTCGCGCCGCCACCTCCGCCTCGCGCCGCCACCGGAGTCACCTAGTGCAG”, for which the binding signal was 3350 fluorescence intensity (a.u.).

With “TCGAACCCGCTCCAAGTCCTGTACCTCGCCGTACGTCAGCCGGAGTCACCTAGTGCAG”, the binding signal was 4420 fluorescence intensity (a.u.).

Turning to “TATAAACAACTTTTCTCGTCATGACTAACTTCCCTTTCGGCGGAGTCACCTAGTGCAG”, the binding signal is 4020 fluorescence intensity (a.u.).

As for “CTTCAGCCAAGTCACAGCGGCCTCGGCTTCTTGCAGCTCGCGGAGTCACCTAGTGCAG”, the binding signal is 3350 fluorescence intensity (a.u.).

As to “GGTTGGATAGCGCTTGTGGTGTGGGCAGGGTTTACACAGACGGAGTCACCTAGTGCAG”, the binding signal was 3150 fluorescence intensity (a.u.).

Take “CGACAGCAACCACGGGACGATTTCATCATCGTGTGTGCACCGGAGTCACCTAGTGCAG”: the binding signal was 3840 fluorescence intensity (a.u.).

Take “AACTACACACAAAGCCGAGCCAAAGTCTCTAGGTCAAAGTCGGAGTCACCTAGTGCAG”: the binding signal is 20600 fluorescence intensity (a.u.).

“CGCGGCACGGGGAGACGACACGTCGGATGGTTGGCAGGAGCGGAGTCACCTAGTGCAG”: the binding signal was 16400 fluorescence intensity (a.u.).

As to “TGTTTTGTTTCCCTCAGCGTATGTAATCATGACTATTACCCGGAGTCACCTAGTGCAG”, the binding signal is 3420 fluorescence intensity (a.u.).

As to “TCATAAAAGGCTGTGTTTAAATCCAAAATTTGGATCCAAACGGAGTCACCTAGTGCAG”, the binding signal was 3270 fluorescence intensity (a.u.).

In the case of “CCCCGTTCGATCTGACAATACGCCATGTCACCTAACAAGACGGAGTCACCTAGTGCAG”, the binding signal was 4630 fluorescence intensity (a.u.).

Turning to “CGGTTTGACCAGCCACATGCTGCTGATTAGACCAGCCCTACGGAGTCACCTAGTGCAG”, the binding signal was 3290 fluorescence intensity (a.u.).
